Results are given in words; binding and its absence hold for the method and conditions named. In cells and extracts the contact can be indirect. A yes stands for co-enrichment or nearness to the bait. Other partners may have been found.
B1: BBS9 (protein, UniProt Q811G0 1-885)
chain: MSLFKARDWWSTVLGEKEEFDQGCLCLADVDNSGNGHDKIIVGSFMGYLRIFSPHSVKAGGGPQAEDLLLEVHLRDPVLQVEVGKFVSGTEMLHLAVLHSRKLCVYSVSGTLGNVEHGNQYQIKLMYEHHLQRTACNMTYGPFGGVKGRDLICIQSLDGMLMVFEQESYAFGRFLPGFLLPGPLAYSPRTDSFITVSSCRQVESYKYQVLAFATDADKKQEMEQQKLGSGKRLVVDWTLNIGEQALDICIFPLNQSASSVFVLGERNFFCLKDNGQIRFMKKLGYNPSCFLPYCSVSEGTINTLIGNHNHMLHIYQDVTLKWATQLPHVPVAVRVGCFHDLKGVIVTLSDDGHLQCSYLGTDPSLFQAPKVESRELNYDELDVELKELQKIIKDVKLQGVWPLTEQEDDLKVSASVSSTLDSVSQATNVEPGADSVPSITVKITLQNRVVLQKVKLSIYVQPPLQLTCDQFTFDFTVPDMTSSVAFSVYLKRNYTPSELEGNAVVSYSRPTDRNPDGIPRVVQCKFRLPLKLICLPGQPSKTASHKLTIDTNKSPVSLLGLFPDFANPSDDDQVNVMGFRLLGGARVTLLASRTSQRYRIQSEQFEDLWLITNELILRLQEHFEKQGTKDFSCSFSGCVPLQEYFELIDHHFELRINGKKLEELLSERAVQFRAIQRRLLTRFRDKTPAPLQHLDTLLDGTYKQVIALADAIEENQDRLLQSFSGLKSATHLLILLIRLWQRLSADQTAILEAAFLPLQEDTQELGWEETVDAAIAYLLKTCLSKSSKEQALNLSSQLNIPKDTSRLKKHITLLCDRLAKGGRLCVSTDAAAPQAMVVPGGCTPIPESDLEERSLDDSTELFTNHKHLMTEPPMPEVSARQGVLE
B2: CFAP251 (protein, UniProt E9Q743 1-1299)
chain: MSDTEENPLEESRESGEMEEEKEEKKEEEEEEEEGEKEKEEEEEEEKGKEEEKEEEKEEGKEEEKKEEEEEKGKKEEEEEEEEEGKGKEEEKEEEKEEEEKEEEKEKEEEEEEEGKGKEEEEEGKEEEEEEKEEEEKEEEKEEEEEEEEEKEEYNPSFEEDALQQSLTEGSLSWEESQEDGEGLEEWVEKEEQREGEEVRGEEESEVRGREEEEGWEEEKSGEEEKSEESERSKERGGEEEGQEKEEAEHEGEREEGREEEEKEKSVEREEEEEEEDTETTETKAGRAKEEKKEKQNKTALVDNIVISHEPPRSSSSLADSPEVSQIYKDNSMKVDDTEEASQKPEDILAQGKDEARLSLEERRKLFQSKGLSAEESLVSVSTEDTLFQKEEDSKVYPLSMTWSFGWNSSLPVYYMREDRRVILYTCAHTAIMYDVVRNTQYHLQGHPNIISCLCVSEDRRWIATADEGPDCLIIIWDSFTGIPVHTIFDSCPEGNGMRSIAITRDSKFLATISDSATQKVCIWKWTLAVETPACTLELPKEYGFQDNLVFNPANNKELVSNSKTQAIYYCWFEDKGILAHSAPVLTEKTFNKLVGKFSQSVFHLKLPQVLSATKEGKLVVWDIHYPSSTSSSAISAFPFIKPRKLVHLQKEAITVLMTIDSYIVTGDIKGNIKFYDHTLSVVNWYSNFKLGAIRTLSFSKTIPSLPTEKSNLPTDCTLRGDLFVVRNFIIGTFDATVYHMTVDGTKLEKLFVEPRDAVYAVSCHPYQPLIAVGSVCGMIKVWDFEKKVYLFSRTFEKGLGVQCLTYNPEGALLGAGFTEGTVYILDAMSLENESPEPFKYSKSSVSHCCFSHDSNYMATADVNFTVAVYMVVVKNGQRVWEYLARLRSHQNSIQSLLFGVHLDSNEPRLLSLGKDRFLIEYNLVKSCKDHLDVLDVHRTDQGNYPTCMIWYPPLTKELFLLICNSGYKVKLFNATTKMCRKTLLGPAYGSPIEHAQVLPVKSTLELQKRYLVFINKDKVGLQILPVDGNPHKTCAIVCHPNGVAGMALSYDGRFAFTAGGQDRSVVQWKINLGALEAAVSLGGEDLTPFYGLVSGGREGKFYRELEDYFYYSQIRSQGIDTMETRQVSEHICLSELPFVMRAIGFYPSEEKIEDMFNEIKFSEYVETGKLIDKINLPDFLKVYLNHRPPFGNTMDGIQNSFNVLGYTNSEGKKAIRREDFLNLLLTKGEHMTEEEMIDCFSTLFGLTPEGWKSEPAATCINGPEICLQKELPEEITAEIFTTEILGLTLSDSSEQLIQ
B3: CATIP (protein, UniProt B9EKE5 1-520)
chain: MGDVTRGEWVVWGLEAGPGETASLHHPGLEDMLLFFPETLAILSDTGEPQGELTIEVQRGKYKDDIGILTHCLLVHASSRGFLDKSLCGSSLLGYLNNNLELMEQHSQEFIKFPVLPMERKMSVLKQDGQFVVTRSVKEGEETKTGVSVFPYKTFKGFVSSAANVVLLRVMAWQQSVPSGARFLALDSEGKLCHCTYKSLGFQTIQVGNQQAKMFIVEQTIHSEEGIPFSCQYYLLPDGHLAKRVQVGSPGCCIITKMPLIREEDVIESPPTFDKKPLVWGEDLELYSKFLDRKEQLRLSHASYLRHHPEAQALVSDFLLFLLLRRPEDVVTFAAEHFRPFAALRSPIPALRSSHQPSPFRTLENEEEEEAKEEEEKEEEEEEEEEIAGEIEGEEEEEEIEEGDDYLYMDEDEDIEDYTYYENYYYNYDEEVDSYDDVNNYDDDDIANVDDNDDIDNYDDDNDDDDDDDDNDDEDDVDDNDDDDVDKVRAKVDNLSVDNDDNDVVNSDNVDVDNDNNNQG
B4: MDH1B (protein, UniProt Q5F204 1-500)
chain: MAKFVIAGKANCPYYAKAELLADYLQKNLPDFRIFKITQHPDKWEDWVEDVCERNMWDHRTSPIIWRELLDRGGRGLLLGGYNEFLEHAQLYYGVTSNMTTELMMVIAKENMQTHTEQQLDKETMKDLISPLQVWIASAGTYVCCHLIPLLLSGEVFGMHTEISLTLFDQEQREDCLRSIVMETQDLASPVLRTVSFCTTVKEAFLQAQVIIILDDSTEEEVYSLESCLRSRVPLCRLYGYLIEKNAHKSVKVIVGGKNFVNLKTTLLMQYAPNIASNIIAVALGVEGQAKAVLARKMKTTSANIKDVIIWGNITGNNYVDLRKAKVYNYESAVKGPPGHYHSVLSLIFDREWITKEFVQTLKILSSTGKQFGGILAAHSIATTLKYWYHGSPPGEIVSLGVMSEGQFDIPEGIVFSMPVKFENGTWVVLTDLEDISLSEKTLSRLTGDLIQEKLVACGDLLTFQPIEEDPKDNEPSNTGMNEEKEQPGSDDSDEKNEDQ
B5: AKAP14 (protein, UniProt Q3V0I7 1-536)
chain: MSNKKKFPNQKAKIVENTSTAKTKKPEAPEPKHVTEPKDSKSVEDPKIPVTDQKEKKTVTTIAEPKDKKSETEPKEKKTVTISDPKAKKPAIEKDKRTVTFVTEVKDKRIVTDTKENRIASIDTKEKVPVVVPEVKEKRVQLLDPKEKVAVLPTTPIGSVAHVPHAPPVAHTEHAAPAKPVAPAKPVAPVAPAKPVAPVAPAKPVVPVAPAKPVAPAAPVTSVVRAVPAAPVTPVAPVAPAVPVVPAAPVAPAAPVVPAAPVAPVAPALPVAPVAPVAPALPVAPAVPVAPAVPVAPVVPEVKQKIPVSEVKGKKEVPLRVPELKEIKASSFAPEIKVKKVGSEIKQKAHVKDVKEKKIVPEVKEKKPVVVKKKDGASEVARTVVDGVMAAAVEMVEEARNPIKNIKWLTHGEFTPEKGRKQIEKFVSTWEFQNRWVYYADFIEKKDLIHSYHYIYRVRWSAPTAVRPMARVSANALFTIKFNKSKPADMPVDVSYIFENSELLQRPGEIRFREQWLRDITETKHILLESIPFKVV
B6: RGS22 (protein, UniProt G3UYX5 1-1258)
chain: MPEKRLSAEPPEVTEEEFENYLATDNFLVDYFNEFLSLPTFPEAIRFNVDYGVFEVVNDAPQLLEKQLKKILQNQQPRNPIYDVVRKGKSDSKSTQKSVPCEDEAINVNYSIMCLKREQGINWIKRERLPAFLESDCYFEYRLAKLISQATWSSTGMNFIVGTNFTPWILRRPPAPPPPSTDEDNYMIMKKFYVSLGQASYTQTKDWFTLAKESENTVTMASLPCCIPHHQTASPVIATASEIFDDGVHPRTIKSLSKSSKAVSELDEEEEGSISMKDSPSQALLRVYLEKKGGKERNLTLHFSSVEEFLDAYIIFILREAIQHITGQSLSDTPEYINYYKVSHVIFDKVPPVPSNKAIVSPPVEMVEEISKDRLENVSLSSESESIGPESRADWCISHRTYDIGNRREFERFKKFLKGTLGERYWWLWMDIERLKVLKDPERHQRHLEKMKKCYLVSSGERYLSAEILSKFKLLHGSRWTADHLKNIQAEVLKPLLLYWAPRFCVTHSASAKNASTELKFWRLRQEKPRKDVDPFPQMATLLPLRPKSCIPQTPEVQGEEINLFQPSKFKKLSKINAGTQQLGRSEPLNAVSSKDGGLEKGSKRLPESTTVVRLTSFTDISECLKPQLERKYTYTEEHNVKTVSNVGALGGFDMENLLQSLYVENRAGFFFTKFCENSGNKLWKHSVYFWFDLQAYHQLFYQETLQPFKVCKQAQYLFATYIAPSASFDIGLHQEGKKDIYMKIQPPFEDLFDTAEEFILLSLLEPWTQMVMSDKMAYKKVELQEETRQLDSACFRKLHALHKETISKKAEDTTGYAMAKLSLSDVSKQTEYWLNVPEGYKHFTFTDLLNNKLEFEHFRQFLESHSSSLDLMCWIDIEQFRRIIFKDQKQREEKSIYIKNKYLNKKYFFGPRSPASLHQQNQIMLLSGGWGRILHEQLDASVLVEIQKHVLNRLENVWLPLFLSSEQFASRQKIKTQMKDIADELLLQRHDRKIGVWKPVESKWISSSCEIIAFRKALLNPVIARQFQRFVALKGDLLENGVLFWQEVQKFKDLCHSHCDESIIHKKITTIINCFINSYIPPALQIDIPVEQAQKILEHRKELGPYVFREAQMTIFGVLFKFWPQFCEFRKNLTDEKIMSVLERRQEHKQKRKASDTEEDKAGKSGVKQYASTTGSLTKPVLGSESLLVLQSYGRQPTWCYSKYIEALEQERILLKIQEEVERKMFTGTSSFTNLLKPSTGSALSLKKNVSLHSIQR

Protein sequences, listed by entry. Tags and fused reporters are not part of them.
UniProt Q8BRC6: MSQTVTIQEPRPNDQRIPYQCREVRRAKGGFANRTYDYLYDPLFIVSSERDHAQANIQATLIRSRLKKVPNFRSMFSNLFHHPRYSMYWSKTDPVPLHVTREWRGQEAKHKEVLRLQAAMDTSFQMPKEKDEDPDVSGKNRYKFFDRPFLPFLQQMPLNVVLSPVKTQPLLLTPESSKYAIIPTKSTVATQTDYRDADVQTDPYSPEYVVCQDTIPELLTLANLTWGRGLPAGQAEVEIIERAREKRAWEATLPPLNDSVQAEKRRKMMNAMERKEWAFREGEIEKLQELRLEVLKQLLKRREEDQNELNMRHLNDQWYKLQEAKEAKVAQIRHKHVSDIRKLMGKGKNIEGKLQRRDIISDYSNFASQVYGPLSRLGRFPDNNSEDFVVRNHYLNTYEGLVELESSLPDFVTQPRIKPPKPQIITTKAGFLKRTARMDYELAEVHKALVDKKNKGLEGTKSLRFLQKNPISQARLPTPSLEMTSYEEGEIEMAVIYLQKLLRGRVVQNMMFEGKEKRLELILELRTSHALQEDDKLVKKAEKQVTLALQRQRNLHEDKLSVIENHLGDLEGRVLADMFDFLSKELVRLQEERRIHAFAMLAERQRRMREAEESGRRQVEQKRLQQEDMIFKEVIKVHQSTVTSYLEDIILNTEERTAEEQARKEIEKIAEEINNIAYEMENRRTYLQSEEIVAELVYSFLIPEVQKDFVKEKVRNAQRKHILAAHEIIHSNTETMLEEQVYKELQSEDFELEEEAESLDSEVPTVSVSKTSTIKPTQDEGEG
UniProt A0JP43: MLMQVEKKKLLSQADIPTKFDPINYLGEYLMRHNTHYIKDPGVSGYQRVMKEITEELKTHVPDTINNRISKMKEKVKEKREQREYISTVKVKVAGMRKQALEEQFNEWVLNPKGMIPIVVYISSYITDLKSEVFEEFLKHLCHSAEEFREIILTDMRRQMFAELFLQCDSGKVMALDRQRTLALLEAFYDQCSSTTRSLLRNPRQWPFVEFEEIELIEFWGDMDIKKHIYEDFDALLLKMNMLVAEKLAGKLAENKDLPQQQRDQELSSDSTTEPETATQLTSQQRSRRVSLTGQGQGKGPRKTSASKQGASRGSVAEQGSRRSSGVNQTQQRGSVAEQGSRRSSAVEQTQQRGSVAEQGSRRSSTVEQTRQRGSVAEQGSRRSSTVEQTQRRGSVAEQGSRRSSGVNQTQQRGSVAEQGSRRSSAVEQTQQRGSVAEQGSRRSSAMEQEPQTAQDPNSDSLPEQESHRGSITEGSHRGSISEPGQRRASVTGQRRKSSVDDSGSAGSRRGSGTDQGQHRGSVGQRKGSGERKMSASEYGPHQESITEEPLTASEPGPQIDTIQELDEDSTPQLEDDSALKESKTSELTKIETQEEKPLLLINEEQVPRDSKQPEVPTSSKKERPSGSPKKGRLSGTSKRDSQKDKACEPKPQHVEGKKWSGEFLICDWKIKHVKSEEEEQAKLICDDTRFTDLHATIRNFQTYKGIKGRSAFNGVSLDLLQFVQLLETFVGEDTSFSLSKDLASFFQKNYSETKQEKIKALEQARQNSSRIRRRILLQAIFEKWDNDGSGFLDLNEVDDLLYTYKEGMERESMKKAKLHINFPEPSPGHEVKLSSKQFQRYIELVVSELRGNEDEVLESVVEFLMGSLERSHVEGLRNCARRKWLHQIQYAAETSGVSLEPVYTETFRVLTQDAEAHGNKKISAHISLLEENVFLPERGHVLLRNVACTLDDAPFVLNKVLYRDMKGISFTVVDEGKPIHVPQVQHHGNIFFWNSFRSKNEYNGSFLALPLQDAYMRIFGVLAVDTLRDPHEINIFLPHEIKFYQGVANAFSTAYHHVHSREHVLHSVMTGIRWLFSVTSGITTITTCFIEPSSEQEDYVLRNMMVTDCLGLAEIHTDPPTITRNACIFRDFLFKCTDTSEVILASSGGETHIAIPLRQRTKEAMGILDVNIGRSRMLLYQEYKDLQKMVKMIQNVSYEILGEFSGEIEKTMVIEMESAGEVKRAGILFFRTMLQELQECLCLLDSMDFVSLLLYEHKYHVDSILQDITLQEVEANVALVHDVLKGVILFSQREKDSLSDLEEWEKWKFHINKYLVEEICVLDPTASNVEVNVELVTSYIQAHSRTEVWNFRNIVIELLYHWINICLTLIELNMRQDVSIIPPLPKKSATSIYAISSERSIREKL
UniProt Q9D2H2: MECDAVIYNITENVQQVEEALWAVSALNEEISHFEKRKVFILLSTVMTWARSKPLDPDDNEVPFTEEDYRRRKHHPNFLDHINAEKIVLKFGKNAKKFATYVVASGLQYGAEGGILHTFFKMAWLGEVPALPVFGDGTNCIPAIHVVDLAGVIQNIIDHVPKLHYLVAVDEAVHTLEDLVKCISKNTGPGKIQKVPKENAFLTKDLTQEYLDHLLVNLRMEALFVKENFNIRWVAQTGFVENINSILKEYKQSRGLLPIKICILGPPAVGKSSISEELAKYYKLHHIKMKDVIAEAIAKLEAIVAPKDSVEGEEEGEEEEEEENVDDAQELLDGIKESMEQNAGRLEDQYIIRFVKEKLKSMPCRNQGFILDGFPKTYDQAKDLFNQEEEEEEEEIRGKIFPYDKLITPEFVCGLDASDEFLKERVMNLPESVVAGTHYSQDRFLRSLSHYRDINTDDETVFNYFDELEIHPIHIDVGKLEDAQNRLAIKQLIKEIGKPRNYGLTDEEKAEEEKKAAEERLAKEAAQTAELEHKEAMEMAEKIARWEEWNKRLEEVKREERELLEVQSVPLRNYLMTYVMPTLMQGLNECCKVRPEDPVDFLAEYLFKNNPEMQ
UniProt G3UYQ4: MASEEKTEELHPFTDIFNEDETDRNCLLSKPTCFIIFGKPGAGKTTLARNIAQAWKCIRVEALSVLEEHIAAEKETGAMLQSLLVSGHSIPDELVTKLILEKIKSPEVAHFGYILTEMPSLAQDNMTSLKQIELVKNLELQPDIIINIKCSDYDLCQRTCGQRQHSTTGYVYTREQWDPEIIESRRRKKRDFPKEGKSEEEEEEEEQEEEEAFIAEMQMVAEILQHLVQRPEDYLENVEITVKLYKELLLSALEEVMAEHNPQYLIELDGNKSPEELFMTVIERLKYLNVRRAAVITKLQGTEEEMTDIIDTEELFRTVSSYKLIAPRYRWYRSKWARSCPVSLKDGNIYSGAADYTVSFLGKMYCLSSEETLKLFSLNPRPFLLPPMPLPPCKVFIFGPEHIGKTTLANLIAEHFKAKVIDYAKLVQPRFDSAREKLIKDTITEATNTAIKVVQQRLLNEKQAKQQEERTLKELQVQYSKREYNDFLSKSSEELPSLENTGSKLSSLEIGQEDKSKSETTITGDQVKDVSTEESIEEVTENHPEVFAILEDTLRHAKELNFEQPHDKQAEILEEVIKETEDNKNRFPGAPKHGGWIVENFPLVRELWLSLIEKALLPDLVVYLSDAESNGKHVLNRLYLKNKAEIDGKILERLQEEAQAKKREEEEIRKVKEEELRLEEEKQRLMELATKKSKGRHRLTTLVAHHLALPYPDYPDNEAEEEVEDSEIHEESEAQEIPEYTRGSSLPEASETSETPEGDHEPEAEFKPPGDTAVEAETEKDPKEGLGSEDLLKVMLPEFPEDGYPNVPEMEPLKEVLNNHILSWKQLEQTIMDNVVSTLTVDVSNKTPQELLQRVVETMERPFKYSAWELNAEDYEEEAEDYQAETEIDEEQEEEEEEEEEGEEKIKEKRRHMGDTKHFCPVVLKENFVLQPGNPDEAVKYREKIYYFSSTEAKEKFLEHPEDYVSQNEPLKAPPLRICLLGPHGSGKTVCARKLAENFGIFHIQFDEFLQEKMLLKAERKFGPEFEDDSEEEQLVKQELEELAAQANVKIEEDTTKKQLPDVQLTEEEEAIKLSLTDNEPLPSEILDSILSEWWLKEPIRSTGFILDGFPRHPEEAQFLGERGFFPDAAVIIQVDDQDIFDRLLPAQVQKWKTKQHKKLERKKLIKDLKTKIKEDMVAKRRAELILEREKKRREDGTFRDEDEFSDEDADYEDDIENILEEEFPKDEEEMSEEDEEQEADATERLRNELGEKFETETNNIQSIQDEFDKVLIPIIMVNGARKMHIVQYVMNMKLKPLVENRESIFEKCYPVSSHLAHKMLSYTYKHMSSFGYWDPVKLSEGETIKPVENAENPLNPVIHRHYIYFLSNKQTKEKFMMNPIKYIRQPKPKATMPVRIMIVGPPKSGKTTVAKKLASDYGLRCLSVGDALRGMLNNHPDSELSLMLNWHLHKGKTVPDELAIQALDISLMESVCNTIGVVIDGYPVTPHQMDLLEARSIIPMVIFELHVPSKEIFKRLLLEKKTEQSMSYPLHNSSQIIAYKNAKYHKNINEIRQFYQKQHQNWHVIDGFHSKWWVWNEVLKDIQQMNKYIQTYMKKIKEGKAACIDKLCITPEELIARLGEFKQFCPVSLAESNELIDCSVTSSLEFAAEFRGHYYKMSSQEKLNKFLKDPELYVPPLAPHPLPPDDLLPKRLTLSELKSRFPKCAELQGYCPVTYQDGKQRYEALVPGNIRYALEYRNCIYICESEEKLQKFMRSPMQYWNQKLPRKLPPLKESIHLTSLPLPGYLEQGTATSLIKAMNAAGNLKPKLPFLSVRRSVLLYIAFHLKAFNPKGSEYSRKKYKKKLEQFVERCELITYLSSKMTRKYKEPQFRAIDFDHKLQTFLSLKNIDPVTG

Biological target: CFAP91-BioID2-3×FLAG (mouse) (UniProt Q8BRC6)
Experiment: affinity purification with mass spectrometry; IP with an anti-FLAG antibody from testis lysate of Cfap91-/- TG males, WT males as control; Dynabeads Co-Immunoprecipitation Kit; LC-MS/MS

binding, binds:
B1, B2, B3, B4

Biological target: CFAP91-BioID2-3×FLAG (mouse) (UniProt Q8BRC6)
Experiment: proximity labelling; BioID2 on CFAP91 in mature cauda epididymal spermatozoa of Cfap91-/- TG males, 250 μM biotin, 16 h, 37 °C; lysis in 0.4% SDS sample buffer; streptavidin pull-down; eluates analysed by immunoblotting and MS; WT spermatozoa as control

binding, binds:
EFCAB5 (from UniProt A0JP43 1-1406), B2, B5, B6

Biological target: CFAP91-BioID2-3×FLAG (mouse) (UniProt Q8BRC6)
Experiment: affinity purification with mass spectrometry; IP with an anti-FLAG antibody from testis lysate of Cfap91-/- TG males, WT males as control; Dynabeads Co-Immunoprecipitation Kit; LC-MS/MS
Remark: another data set of the same source

binding, binds:
AK7 (from UniProt Q9D2H2 1-614), AK9 (from UniProt G3UYQ4 1-1894)
